Assay results taken from the supplement of paper PMC10849652.
Some of the results follow.

The chains behind the UniProt entries cited, without tags or fusion partners. Where a name states a change or a piece, a line headed by the entry shows the natural chain unless it says otherwise.
UniProt O14929: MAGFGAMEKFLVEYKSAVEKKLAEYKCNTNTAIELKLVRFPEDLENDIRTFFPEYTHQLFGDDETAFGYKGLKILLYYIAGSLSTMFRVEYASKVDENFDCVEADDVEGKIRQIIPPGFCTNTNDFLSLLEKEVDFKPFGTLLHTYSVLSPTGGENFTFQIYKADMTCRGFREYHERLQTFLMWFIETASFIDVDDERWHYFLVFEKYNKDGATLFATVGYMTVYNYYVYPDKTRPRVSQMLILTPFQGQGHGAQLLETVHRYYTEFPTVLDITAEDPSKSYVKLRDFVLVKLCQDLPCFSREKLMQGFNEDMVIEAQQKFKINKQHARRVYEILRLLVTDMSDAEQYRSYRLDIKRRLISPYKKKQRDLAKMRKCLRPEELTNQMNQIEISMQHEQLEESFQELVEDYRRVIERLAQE
UniProt Q8WUI4: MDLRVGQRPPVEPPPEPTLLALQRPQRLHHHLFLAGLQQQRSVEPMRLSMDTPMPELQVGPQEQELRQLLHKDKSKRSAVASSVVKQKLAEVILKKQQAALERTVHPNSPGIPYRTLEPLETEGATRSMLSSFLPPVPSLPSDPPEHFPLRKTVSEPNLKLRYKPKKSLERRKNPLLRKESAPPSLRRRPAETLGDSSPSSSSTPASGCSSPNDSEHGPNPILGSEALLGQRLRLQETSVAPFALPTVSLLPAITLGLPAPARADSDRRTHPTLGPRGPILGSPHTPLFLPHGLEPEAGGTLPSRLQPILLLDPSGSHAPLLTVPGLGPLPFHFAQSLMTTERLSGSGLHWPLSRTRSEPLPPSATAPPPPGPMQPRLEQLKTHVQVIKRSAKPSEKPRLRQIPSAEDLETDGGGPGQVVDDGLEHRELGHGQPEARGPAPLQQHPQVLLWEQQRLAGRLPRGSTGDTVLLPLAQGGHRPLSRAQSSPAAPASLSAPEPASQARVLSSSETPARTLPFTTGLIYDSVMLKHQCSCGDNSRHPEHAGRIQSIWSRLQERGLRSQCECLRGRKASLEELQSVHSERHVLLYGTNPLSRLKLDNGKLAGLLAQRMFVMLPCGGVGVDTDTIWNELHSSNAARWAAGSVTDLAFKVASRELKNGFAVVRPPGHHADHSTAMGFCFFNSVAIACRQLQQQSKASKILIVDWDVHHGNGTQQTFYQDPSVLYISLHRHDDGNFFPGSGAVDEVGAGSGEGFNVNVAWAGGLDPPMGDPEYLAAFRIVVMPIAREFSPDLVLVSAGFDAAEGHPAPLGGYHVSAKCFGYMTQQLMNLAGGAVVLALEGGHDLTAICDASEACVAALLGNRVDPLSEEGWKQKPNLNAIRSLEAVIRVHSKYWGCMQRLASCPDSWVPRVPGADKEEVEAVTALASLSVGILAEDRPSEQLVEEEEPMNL
UniProt Q9UKN8: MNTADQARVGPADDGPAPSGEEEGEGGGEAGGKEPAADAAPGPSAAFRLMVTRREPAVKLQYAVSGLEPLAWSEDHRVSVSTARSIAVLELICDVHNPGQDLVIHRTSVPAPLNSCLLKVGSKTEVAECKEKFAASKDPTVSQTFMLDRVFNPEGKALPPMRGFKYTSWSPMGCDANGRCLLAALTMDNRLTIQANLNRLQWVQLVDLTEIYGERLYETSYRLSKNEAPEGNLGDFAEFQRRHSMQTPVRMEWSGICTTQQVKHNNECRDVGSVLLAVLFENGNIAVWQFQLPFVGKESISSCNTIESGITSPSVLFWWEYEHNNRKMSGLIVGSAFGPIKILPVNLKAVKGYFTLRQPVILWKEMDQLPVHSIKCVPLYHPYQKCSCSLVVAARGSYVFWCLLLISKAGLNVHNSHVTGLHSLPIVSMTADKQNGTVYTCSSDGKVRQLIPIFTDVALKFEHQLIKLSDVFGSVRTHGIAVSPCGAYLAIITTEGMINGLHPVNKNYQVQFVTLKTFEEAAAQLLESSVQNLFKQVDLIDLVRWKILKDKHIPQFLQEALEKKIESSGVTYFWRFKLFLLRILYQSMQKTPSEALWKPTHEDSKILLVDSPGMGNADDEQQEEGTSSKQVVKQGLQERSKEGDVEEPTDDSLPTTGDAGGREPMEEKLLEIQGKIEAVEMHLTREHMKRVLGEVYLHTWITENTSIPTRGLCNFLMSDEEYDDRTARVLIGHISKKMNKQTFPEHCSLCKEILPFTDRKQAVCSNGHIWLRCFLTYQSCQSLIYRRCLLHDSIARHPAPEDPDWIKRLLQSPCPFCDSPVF
UniProt Q9UJ83: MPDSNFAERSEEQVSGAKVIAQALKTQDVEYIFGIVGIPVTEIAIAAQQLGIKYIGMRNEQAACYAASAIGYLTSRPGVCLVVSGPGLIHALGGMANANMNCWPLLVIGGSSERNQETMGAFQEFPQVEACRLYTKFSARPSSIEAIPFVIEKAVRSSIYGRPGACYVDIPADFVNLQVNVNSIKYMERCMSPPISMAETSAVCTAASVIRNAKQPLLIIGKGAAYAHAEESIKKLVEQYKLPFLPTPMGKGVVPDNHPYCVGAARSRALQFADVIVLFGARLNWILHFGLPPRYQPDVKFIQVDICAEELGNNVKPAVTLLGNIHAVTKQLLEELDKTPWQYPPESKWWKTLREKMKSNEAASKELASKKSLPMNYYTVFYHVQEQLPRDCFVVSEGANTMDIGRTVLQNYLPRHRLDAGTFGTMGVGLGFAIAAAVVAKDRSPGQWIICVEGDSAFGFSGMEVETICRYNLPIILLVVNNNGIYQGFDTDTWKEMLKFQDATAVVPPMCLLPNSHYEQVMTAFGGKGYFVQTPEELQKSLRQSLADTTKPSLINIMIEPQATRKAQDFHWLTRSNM
UniProt P14317: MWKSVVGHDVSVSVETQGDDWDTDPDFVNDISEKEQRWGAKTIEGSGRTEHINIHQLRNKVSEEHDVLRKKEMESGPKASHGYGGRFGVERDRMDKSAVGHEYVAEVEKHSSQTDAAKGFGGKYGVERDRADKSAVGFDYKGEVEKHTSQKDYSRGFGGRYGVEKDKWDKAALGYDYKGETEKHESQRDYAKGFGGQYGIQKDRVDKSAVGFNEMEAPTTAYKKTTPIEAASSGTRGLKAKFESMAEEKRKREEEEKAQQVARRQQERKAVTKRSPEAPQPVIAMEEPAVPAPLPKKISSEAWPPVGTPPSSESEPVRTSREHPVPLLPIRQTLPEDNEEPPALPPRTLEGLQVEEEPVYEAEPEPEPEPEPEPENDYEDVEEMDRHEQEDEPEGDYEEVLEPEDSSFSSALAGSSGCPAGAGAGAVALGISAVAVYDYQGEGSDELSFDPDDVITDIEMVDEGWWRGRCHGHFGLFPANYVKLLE
UniProt Q92522: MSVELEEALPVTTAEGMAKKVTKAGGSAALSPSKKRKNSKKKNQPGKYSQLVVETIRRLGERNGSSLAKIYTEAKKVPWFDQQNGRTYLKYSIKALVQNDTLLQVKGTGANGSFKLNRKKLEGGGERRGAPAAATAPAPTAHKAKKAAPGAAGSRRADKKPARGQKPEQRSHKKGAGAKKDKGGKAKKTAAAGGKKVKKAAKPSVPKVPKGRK
UniProt Q8IYD1, whole entry, looked up: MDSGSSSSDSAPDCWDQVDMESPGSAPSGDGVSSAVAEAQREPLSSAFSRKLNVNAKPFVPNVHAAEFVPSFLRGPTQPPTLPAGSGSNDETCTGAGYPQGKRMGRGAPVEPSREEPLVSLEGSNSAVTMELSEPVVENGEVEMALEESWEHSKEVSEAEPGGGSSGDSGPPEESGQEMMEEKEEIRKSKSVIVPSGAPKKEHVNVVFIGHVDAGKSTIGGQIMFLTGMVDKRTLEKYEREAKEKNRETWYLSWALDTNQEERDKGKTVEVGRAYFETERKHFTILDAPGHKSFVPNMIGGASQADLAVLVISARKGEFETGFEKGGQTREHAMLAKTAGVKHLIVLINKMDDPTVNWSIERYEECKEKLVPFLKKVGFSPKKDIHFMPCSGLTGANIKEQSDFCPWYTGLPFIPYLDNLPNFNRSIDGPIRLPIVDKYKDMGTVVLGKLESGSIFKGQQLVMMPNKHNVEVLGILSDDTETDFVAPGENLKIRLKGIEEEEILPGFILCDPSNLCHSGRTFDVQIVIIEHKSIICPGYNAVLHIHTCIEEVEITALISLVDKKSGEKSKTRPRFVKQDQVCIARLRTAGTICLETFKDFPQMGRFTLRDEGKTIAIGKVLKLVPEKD
UniProt Q9BT25: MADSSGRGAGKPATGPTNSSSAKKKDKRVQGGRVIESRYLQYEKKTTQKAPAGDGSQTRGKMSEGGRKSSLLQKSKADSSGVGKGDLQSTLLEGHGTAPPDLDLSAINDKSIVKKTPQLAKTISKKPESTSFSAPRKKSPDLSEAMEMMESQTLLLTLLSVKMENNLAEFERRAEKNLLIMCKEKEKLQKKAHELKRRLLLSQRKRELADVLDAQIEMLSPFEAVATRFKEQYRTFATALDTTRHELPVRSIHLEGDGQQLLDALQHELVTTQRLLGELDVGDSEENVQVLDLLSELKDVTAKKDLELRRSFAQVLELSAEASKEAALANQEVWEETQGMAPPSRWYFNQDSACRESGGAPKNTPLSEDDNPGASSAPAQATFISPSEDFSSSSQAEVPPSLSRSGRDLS
UniProt Q9P0R6: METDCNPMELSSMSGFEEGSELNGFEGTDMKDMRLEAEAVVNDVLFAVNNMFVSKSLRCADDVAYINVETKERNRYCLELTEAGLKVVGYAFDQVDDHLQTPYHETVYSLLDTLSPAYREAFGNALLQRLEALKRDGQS
UniProt Q16836: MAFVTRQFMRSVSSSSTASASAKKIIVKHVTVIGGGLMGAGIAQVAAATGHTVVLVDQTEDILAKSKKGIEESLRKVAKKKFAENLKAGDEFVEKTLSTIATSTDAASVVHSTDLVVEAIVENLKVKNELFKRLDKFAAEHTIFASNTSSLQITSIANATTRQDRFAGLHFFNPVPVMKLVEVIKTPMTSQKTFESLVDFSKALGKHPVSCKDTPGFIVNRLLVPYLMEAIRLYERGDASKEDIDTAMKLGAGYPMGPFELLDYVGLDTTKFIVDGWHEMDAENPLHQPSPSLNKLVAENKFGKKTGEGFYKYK
UniProt P16401, whole entry, looked up: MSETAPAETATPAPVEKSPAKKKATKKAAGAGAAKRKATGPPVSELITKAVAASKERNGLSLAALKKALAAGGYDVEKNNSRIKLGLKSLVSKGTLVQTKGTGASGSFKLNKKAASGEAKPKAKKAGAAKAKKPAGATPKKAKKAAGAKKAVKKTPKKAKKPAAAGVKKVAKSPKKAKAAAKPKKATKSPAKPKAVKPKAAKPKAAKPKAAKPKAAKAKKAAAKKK
UniProt P08236: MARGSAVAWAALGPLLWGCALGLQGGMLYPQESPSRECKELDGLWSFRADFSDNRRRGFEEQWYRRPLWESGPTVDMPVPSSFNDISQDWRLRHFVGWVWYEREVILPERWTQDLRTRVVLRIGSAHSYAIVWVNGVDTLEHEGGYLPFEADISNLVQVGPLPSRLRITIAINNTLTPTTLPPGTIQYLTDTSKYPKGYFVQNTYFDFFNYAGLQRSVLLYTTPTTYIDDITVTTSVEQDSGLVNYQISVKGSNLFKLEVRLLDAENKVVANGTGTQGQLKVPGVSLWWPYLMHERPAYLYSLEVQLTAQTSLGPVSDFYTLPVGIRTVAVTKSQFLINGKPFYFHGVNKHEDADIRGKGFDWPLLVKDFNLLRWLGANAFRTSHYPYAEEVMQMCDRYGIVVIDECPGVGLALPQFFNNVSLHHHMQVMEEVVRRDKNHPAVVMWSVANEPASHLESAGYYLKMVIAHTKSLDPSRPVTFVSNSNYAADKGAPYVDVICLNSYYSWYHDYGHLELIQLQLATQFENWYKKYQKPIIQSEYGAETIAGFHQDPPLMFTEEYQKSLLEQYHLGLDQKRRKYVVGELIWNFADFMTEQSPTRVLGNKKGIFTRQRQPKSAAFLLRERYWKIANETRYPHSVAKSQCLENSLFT
UniProt Q9P035: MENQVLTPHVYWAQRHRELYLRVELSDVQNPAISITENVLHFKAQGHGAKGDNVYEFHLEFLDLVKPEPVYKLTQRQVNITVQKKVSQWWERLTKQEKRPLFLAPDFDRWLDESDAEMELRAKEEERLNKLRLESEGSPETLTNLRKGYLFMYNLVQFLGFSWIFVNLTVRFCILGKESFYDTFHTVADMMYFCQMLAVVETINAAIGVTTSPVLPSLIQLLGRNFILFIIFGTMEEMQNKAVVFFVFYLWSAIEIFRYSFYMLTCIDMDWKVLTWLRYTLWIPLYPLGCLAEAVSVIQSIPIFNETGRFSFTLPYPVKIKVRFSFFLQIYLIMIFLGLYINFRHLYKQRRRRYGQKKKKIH
UniProt Q13888: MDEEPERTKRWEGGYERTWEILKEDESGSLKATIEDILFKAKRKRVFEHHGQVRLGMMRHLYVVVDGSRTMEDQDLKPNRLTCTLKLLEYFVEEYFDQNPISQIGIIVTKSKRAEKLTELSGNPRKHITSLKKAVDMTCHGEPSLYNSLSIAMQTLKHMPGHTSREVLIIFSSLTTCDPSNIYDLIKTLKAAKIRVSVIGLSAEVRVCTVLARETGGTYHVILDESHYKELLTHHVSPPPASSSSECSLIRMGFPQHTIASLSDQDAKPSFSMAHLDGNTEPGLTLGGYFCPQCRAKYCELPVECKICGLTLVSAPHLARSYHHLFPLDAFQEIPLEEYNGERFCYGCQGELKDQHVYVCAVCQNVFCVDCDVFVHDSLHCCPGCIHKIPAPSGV

Legend:
Assay in all cases: log2 fold change, soluble protein after heating vs DMSO (PISA); higher = thermal stabilisation; K562 lysate, 10 uM; active = over 0.2 and 3.5 SD of the protein, either way, in both replicates (recomputed)
vemurafenib = compound: CCCS(=O)(=O)Nc1ccc(F)c(C(=O)c2c[nH]c3ncc(-c4ccc(Cl)cc4)cc23)c1F [vemurafenib]
In short: (§1)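 The values are log-two fold changes in thermal stability compared with solvent controls and come from duplicates. They were obtained by TMTpro 16plex LC-MS/MS, with channel sums equalised, on the supernatant after 21,000xg for 90 min. That supernatant came from crude K562 extract at 1 mg/mL protein treated with 10 μM compound for 30 min, heated for 3 min across 48°C-58°C, pooled and brought to 0.5% NP-40 at 4°C.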

[1] = compound: CCCS(=O)(=O)Nc1ccc(F)c(C(=O)c2c[nH]c3ncc(Cl)cc23)c1F
In short: as §1

barasertib = compound: CCN(CCCOc1ccc2c(Nc3cc(CC(=O)Nc4cccc(F)c4)[nH]n3)ncnc2c1)CCOP(=O)(O)O [barasertib]
In short: as §1

[2] = compound: CC[C@@H]1C(=O)N(C)c2cnc(Nc3ccc(C(=O)NC4CCN(C)CC4)cc3OC)nc2N1C1CCCC1
In short: as §1

volasertib = compound: CC[C@@H]1C(=O)N(C)c2cnc(Nc3ccc(C(=O)N[C@H]4CC[C@H](N5CCN(CC6CC6)CC5)CC4)cc3OC)nc2N1C(C)C [volasertib]
In short: as §1

[3] = compound: CCn1c(C(=O)N(C2CC2)C2CC2)cc2c3c(ncn3C)c(Nc3cc(C)n(C)n3)nc21
In short: as §1

[4] = compound: CCn1cc(-c2ccnc3[nH]c(-c4cccc(CN(C)C)c4)cc23)c(-c2ccc(NC(=O)N(C)C)cc2)n1
In short: as §1

[5] = compound: CN1CCC(CNc2ccc3ncc(-c4cccc(OC(F)(F)F)c4)n3n2)CC1
In short: as §1

saracatinib = compound: CN1CCN(CCOc2cc(OC3CCOCC3)c3c(Nc4c(Cl)ccc5c4OCO5)ncnc3c2)CC1 [saracatinib]
In short: as §1

sotrastaurin = compound: CN1CCN(c2nc(C3=C(c4c[nH]c5ccccc45)C(=O)NC3=O)c3ccccc3n2)CC1 [sotrastaurin]
In short: as §1

| Target | log2 fold change (vemurafenib) | log2 fold change [1] | log2 fold change (barasertib) | log2 fold change [2] | log2 fold change (volasertib) | log2 fold change [3] | log2 fold change [4] | log2 fold change [5] | log2 fold change (saracatinib) | log2 fold change (sotrastaurin) |
| --- | --- | --- | --- | --- | --- | --- | --- | --- | --- | --- |
| HAT1 (UniProt O14929) | inactive: 0.007 | inactive: 0.004 | inactive: -0.017 | inactive: 0.028 | inactive: 0.023 | inactive: -0.028 | inactive: -0.002 | inactive: 0.042 | inactive: 0.021 | inactive: 0.022 |
| HDAC7 isoform 5 (UniProt Q8WUI4) | inactive: -0.02 | inactive: 0.023 | inactive: -0.032 | inactive: -0.043 | inactive: 0.003 | inactive: 0.006 | inactive: 0.01 | inactive: -0.013 | inactive: 0.021 | inactive: -0.016 |
| GTF3C4 (UniProt Q9UKN8) | inactive: -0.011 | inactive: 0.033 | inactive: 0.012 | inactive: -0.04 | inactive: -0.036 | inactive: 0.001 | inactive: 0 | inactive: -0.051 | inactive: 0.005 | inactive: 0.009 |
| HACL1 (UniProt Q9UJ83) | inactive: 0.027 | inactive: -0.004 | inactive: -0.005 | inactive: 0.041 | inactive: 0.023 | inactive: 0.01 | inactive: 0.047 | inactive: 0 | inactive: 0.012 | inactive: 0.005 |
| HCLS1 (UniProt P14317) | inactive: 0.045 | inactive: -0.007 | inactive: -0.043 | inactive: 0.049 | inactive: 0.021 | inactive: 0 | inactive: 0.032 | inactive: -0.011 | inactive: 0.016 | inactive: 0.012 |
| GYPC (UniProt P04921) | inactive: 0.066 | inactive: -0.017 | inactive: 0.377 | inactive: 0.017 | inactive: 0 | inactive: 0.065 | inactive: -0.083 | inactive: -0.001 | inactive: -0.006 | inactive: 0.084 |
| GSTP1 (UniProt P09211) | inactive: -0.007 | inactive: -0.017 | inactive: 0.008 | inactive: 0.003 | inactive: 0.034 | active: 0.324 | inactive: -0.059 | inactive: 0.021 | inactive: 0 | inactive: -0.002 |
| HCFC1 isoform 4 (UniProt P51610) | inactive: -0.014 | inactive: 0.003 | inactive: -0.018 | inactive: 0.04 | inactive: 0.017 | inactive: -0.029 | inactive: -0.045 | inactive: 0.055 | inactive: 0.004 | inactive: 0.014 |
| H1FX (UniProt Q92522) | inactive: -0.007 | inactive: 0.01 | inactive: -0.004 | inactive: -0.046 | inactive: -0.017 | inactive: -0.026 | inactive: -0.008 | inactive: -0.016 | inactive: 0.001 | inactive: 0.032 |
| GSPT2 (UniProt Q8IYD1) | inactive: -0.004 | inactive: 0.031 | inactive: 0.066 | inactive: -0.119 | inactive: -0.056 | inactive: -0.023 | inactive: -0.036 | inactive: 0.109 | inactive: -0.004 | inactive: 0.011 |
| HAUS8 (UniProt Q9BT25) | inactive: -0.042 | inactive: 0.04 | inactive: -0.05 | inactive: -0.049 | inactive: 0.037 | inactive: -0.005 | inactive: -0.048 | inactive: 0.029 | inactive: 0.031 | inactive: -0.001 |
| GSTZ1 (UniProt G3V4T6) | inactive: -0.013 | inactive: -0.024 | inactive: 0.018 | inactive: -0.101 | inactive: -0.02 | inactive: -0.029 | inactive: -0.116 | inactive: 0.087 | inactive: -0.012 | inactive: -0.018 |
| GTSF1 (UniProt Q8WW33) | inactive: -0.018 | inactive: 0.007 | inactive: 0.045 | inactive: 0.11 | inactive: 0.05 | inactive: 0.028 | inactive: 0.037 | inactive: -0.012 | inactive: 0.011 | inactive: -0.033 |
| GSKIP (UniProt Q9P0R6) | inactive: 0.067 | inactive: 0.071 | inactive: 0.207 | inactive: 0.024 | inactive: 0.04 | inactive: -0.012 | inactive: 0.014 | inactive: -0.111 | inactive: -0.065 | inactive: -0.158 |
| HDAC10 (UniProt Q969S8) | inactive: 0.142 | inactive: -0.093 | inactive: 0.009 | inactive: -0.052 | inactive: -0.056 | inactive: -0.117 | inactive: -0.026 | inactive: 0.02 | inactive: -0.052 | inactive: -0.069 |
| HDGFL3 (UniProt Q9Y3E1) | inactive: 0.108 | inactive: -0.078 | inactive: 0.026 | inactive: 0.107 | inactive: 0.008 | inactive: -0.042 | inactive: -0.101 | inactive: 0.031 | inactive: -0.023 | inactive: 0.032 |
| GTF2F2 (UniProt P13984) | inactive: -0.029 | inactive: -0.005 | inactive: -0.009 | inactive: 0.041 | inactive: 0.009 | inactive: -0.012 | inactive: -0.083 | inactive: 0.02 | inactive: -0.003 | inactive: 0.012 |
| H1-4 (UniProt P10412) | inactive: 0.012 | inactive: 0.012 | inactive: -0.031 | inactive: 0.089 | inactive: 0.007 | inactive: -0.092 | inactive: -0.286 | inactive: 0.073 | inactive: 0.013 | inactive: -0.029 |
| HADH isoform 2 (UniProt Q16836) | inactive: -0.032 | inactive: -0.022 | inactive: -0.049 | inactive: 0.002 | inactive: 0.004 | inactive: 0.009 | inactive: 0.066 | inactive: -0.054 | inactive: -0.096 | inactive: 0.004 |
| HDAC3 (UniProt O15379) | inactive: 0.035 | inactive: 0.026 | inactive: -0.038 | inactive: -0.023 | inactive: -0.003 | inactive: 0.001 | inactive: 0.023 | inactive: 0.052 | inactive: -0.04 | inactive: -0.006 |
| GTPBP4 (UniProt Q9BZE4) | inactive: -0.014 | inactive: 0.016 | inactive: 0.032 | inactive: -0.016 | inactive: -0.016 | inactive: -0.005 | inactive: -0.061 | inactive: -0.018 | inactive: -0.001 | inactive: 0.005 |
| HAX1 (UniProt O00165) | inactive: -0.051 | inactive: 0.037 | inactive: 0.067 | inactive: -0.018 | inactive: 0.022 | inactive: 0.032 | inactive: 0.03 | inactive: -0.053 | inactive: 0.013 | inactive: 0.029 |
| H1-5 (UniProt P16401) | inactive: 0 | inactive: -0.013 | inactive: -0.004 | inactive: 0.049 | inactive: 0.013 | inactive: -0.05 | inactive: -0.02 | inactive: 0.02 | inactive: -0.057 | inactive: -0.027 |
| GUSB (UniProt P08236) | inactive: 0.013 | inactive: 0.028 | inactive: -0.024 | inactive: -0.049 | inactive: 0.053 | inactive: 0.027 | active: -0.561 | active: 0.355 | inactive: -0.008 | inactive: 0.038 |
| HACD3 (UniProt Q9P035) | inactive: 0 | inactive: 0.027 | inactive: 0.039 | inactive: 0.086 | inactive: 0.024 | inactive: -0.03 | inactive: -0.066 | inactive: 0.024 | inactive: 0.042 | inactive: 0.004 |
| HBG2 (UniProt P69892) | inactive: -0.024 | inactive: -0.005 | inactive: 0.129 | inactive: 0.05 | inactive: 0.057 | inactive: 0.022 | inactive: 0.008 | inactive: -0.092 | inactive: 0.01 | inactive: -0.035 |
| GRK2 (UniProt P25098) | inactive: -0.019 | inactive: 0.016 | inactive: -0.006 | inactive: -0.08 | inactive: -0.05 | inactive: 0.003 | inactive: -0.054 | inactive: -0.016 | inactive: -0.009 | inactive: 0.01 |
| GYS1 (UniProt P13807) | inactive: 0.025 | inactive: 0.009 | inactive: 0.034 | inactive: 0.046 | inactive: -0.043 | inactive: 0.029 | inactive: 0.045 | inactive: 0.026 | inactive: -0.006 | inactive: 0.035 |
| GTF2H2 (UniProt Q13888) | inactive: -0.037 | inactive: 0.016 | inactive: 0.019 | inactive: -0.053 | inactive: -0.053 | inactive: 0.083 | inactive: -0.1 | inactive: 0.051 | inactive: 0.045 | inactive: -0.014 |

Laid out differently: entries from further up.
Target,log2 fold change (vemurafenib),log2 fold change [1],log2 fold change (barasertib),log2 fold change [2],log2 fold change (volasertib),log2 fold change [3],log2 fold change [4],log2 fold change [5],log2 fold change (saracatinib),log2 fold change (sotrastaurin)
GSPT2 (UniProt Q8IYD1),inactive: -0.004,inactive: 0.031,inactive: 0.066,inactive: -0.119,inactive: -0.056,inactive: -0.023,inactive: -0.036,inactive: 0.109,inactive: -0.004,inactive: 0.011
HACD3 (UniProt Q9P035),inactive: 0,inactive: 0.027,inactive: 0.039,inactive: 0.086,inactive: 0.024,inactive: -0.03,inactive: -0.066,inactive: 0.024,inactive: 0.042,inactive: 0.004
